Experimental data reported in the supplement of paper PMC12067093, “Discovery and optimisation of a covalent ligand for TRIM25 and its application to targeted protein ubiquitination” (Chemical Science, 2025).
Some of the results follow.

The chains behind the UniProt entries cited, without tags or fusion partners. Where a name states a change or a piece, a line headed by the entry shows the natural chain unless it says otherwise.
UniProt P11413, whole entry, looked up: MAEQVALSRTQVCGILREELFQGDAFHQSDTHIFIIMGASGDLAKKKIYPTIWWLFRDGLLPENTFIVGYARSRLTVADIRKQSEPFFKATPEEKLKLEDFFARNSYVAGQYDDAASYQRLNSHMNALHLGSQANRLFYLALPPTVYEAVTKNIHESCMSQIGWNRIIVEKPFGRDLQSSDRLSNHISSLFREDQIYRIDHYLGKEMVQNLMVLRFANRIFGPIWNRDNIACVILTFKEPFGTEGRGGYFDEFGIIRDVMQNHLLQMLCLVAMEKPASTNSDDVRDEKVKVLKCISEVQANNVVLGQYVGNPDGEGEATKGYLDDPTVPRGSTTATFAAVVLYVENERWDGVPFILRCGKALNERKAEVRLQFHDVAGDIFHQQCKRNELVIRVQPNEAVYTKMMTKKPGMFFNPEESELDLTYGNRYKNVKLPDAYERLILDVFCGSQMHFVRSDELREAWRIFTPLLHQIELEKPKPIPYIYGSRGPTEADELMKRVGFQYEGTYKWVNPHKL
UniProt Q13045: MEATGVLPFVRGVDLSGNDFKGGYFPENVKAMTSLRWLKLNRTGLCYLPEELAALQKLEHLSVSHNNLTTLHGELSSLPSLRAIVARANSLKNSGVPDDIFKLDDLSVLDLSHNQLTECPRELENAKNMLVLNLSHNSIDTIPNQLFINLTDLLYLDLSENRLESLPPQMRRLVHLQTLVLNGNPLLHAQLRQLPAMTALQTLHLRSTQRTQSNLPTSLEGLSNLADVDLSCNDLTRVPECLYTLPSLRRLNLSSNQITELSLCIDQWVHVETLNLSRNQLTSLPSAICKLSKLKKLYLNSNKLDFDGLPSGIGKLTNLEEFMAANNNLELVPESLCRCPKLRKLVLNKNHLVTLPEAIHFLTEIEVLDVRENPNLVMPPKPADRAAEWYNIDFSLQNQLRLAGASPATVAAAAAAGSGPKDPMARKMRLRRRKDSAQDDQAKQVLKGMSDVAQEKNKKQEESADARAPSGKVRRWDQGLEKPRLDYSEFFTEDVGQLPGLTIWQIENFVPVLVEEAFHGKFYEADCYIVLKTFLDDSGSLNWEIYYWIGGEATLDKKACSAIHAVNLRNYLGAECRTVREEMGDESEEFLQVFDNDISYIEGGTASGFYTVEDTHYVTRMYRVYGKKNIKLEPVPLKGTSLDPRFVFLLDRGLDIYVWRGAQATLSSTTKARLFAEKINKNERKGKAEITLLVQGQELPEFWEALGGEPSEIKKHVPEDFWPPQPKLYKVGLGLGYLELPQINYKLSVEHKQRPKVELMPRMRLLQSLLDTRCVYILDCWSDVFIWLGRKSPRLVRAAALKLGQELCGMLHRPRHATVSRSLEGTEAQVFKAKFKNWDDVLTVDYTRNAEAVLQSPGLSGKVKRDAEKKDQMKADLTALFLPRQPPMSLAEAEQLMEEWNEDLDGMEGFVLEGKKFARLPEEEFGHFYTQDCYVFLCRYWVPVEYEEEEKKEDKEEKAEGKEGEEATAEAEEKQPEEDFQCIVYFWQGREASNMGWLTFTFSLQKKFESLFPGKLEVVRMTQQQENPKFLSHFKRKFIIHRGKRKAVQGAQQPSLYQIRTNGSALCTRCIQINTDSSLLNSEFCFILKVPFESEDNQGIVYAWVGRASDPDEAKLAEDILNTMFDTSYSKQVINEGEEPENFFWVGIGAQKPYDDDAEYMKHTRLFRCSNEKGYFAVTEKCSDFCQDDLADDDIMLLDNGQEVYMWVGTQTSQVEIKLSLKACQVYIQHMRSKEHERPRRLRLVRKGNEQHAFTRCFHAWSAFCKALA
UniProt Q14332, whole entry, looked up: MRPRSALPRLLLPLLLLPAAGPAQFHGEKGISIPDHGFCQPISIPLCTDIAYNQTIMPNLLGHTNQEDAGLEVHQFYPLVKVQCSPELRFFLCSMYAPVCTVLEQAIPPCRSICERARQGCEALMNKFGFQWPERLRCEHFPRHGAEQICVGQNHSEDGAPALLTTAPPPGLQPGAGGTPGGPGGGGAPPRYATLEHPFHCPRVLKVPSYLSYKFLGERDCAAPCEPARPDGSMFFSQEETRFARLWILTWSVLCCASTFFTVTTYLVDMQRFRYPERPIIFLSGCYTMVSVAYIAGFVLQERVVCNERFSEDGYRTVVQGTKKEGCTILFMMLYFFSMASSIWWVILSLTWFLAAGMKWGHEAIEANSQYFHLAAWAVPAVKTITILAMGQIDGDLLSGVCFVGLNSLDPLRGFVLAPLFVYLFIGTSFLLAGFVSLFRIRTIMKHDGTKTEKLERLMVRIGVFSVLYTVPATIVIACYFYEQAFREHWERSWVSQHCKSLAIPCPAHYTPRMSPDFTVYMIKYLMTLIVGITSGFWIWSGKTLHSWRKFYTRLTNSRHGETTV
UniProt P36888, whole entry: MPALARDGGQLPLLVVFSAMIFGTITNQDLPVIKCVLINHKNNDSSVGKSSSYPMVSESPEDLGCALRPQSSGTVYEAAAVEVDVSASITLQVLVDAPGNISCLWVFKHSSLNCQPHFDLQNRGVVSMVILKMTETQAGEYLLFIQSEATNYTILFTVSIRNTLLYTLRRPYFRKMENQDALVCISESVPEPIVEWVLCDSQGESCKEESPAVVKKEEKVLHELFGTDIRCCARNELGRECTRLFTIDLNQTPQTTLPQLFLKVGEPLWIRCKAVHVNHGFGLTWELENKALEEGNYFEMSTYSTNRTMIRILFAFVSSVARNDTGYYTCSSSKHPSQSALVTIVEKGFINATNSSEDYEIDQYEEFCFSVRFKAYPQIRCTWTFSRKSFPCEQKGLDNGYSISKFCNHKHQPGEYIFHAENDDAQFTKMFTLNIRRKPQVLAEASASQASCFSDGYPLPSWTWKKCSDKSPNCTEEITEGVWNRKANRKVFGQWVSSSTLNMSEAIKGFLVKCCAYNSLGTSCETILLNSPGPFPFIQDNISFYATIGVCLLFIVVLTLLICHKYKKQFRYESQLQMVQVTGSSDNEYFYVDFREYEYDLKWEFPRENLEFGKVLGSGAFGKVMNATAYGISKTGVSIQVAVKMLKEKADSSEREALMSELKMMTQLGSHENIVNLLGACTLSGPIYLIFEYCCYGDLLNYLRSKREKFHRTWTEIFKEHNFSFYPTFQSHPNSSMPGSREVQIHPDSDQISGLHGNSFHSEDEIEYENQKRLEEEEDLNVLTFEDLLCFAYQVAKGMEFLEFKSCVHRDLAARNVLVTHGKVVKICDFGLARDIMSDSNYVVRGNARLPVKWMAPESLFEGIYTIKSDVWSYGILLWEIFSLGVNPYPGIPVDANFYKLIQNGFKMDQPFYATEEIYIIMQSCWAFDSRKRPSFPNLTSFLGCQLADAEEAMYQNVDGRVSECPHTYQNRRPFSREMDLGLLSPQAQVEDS
UniProt Q05932: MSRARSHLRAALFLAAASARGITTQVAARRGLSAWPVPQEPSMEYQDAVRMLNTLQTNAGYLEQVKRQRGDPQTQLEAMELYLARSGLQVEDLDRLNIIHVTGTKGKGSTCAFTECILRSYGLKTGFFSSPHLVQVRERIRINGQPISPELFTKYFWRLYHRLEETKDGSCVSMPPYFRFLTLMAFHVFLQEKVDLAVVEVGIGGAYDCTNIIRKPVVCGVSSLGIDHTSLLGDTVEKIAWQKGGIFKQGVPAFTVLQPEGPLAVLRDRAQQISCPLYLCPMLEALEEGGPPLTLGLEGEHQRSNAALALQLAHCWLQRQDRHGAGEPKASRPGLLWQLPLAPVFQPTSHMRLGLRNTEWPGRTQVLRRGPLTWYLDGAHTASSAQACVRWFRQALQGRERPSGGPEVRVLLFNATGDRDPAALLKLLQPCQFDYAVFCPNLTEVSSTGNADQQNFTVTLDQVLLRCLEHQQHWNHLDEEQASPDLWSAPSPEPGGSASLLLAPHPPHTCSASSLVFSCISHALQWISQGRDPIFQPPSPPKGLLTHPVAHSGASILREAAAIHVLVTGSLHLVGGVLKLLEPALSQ
UniProt Q9BTY2: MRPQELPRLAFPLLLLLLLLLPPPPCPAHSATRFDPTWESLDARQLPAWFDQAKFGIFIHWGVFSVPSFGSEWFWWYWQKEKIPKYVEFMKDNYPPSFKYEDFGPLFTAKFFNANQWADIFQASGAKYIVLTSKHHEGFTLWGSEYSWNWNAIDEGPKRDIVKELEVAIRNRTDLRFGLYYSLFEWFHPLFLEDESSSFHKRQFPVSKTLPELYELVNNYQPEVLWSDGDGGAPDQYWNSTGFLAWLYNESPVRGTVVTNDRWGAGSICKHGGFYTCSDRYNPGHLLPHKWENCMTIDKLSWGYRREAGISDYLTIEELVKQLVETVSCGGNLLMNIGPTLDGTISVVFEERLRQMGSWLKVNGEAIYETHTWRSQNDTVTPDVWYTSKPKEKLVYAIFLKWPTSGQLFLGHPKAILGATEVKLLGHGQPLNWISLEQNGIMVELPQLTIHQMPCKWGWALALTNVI
UniProt Q9C0B1, whole entry, looked up: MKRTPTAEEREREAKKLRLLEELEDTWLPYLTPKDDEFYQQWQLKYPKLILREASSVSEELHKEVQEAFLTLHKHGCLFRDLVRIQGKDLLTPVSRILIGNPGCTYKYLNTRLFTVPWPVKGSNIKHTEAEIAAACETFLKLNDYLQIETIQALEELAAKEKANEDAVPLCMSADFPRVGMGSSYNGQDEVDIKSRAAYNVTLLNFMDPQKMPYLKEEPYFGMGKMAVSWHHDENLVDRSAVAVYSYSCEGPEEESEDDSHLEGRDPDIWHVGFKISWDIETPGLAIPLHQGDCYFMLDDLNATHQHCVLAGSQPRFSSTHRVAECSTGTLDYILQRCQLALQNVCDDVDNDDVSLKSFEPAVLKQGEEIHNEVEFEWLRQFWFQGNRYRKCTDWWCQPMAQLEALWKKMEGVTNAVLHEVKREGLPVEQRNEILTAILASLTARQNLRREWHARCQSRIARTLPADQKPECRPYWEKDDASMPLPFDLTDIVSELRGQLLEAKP
UniProt P35637: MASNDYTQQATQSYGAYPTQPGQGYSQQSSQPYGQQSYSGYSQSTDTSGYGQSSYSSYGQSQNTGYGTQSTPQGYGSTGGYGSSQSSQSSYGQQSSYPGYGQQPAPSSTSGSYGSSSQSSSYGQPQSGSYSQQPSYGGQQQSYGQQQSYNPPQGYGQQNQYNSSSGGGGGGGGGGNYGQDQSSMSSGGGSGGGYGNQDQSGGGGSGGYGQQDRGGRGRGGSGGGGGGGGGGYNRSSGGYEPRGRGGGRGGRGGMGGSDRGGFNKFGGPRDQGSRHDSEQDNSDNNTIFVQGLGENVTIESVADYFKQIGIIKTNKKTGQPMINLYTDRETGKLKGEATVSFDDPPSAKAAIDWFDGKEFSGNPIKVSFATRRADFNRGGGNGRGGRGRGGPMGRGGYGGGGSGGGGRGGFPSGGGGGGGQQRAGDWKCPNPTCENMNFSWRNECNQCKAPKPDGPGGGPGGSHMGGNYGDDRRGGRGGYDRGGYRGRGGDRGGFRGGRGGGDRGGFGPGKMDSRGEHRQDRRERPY
UniProt Q01415: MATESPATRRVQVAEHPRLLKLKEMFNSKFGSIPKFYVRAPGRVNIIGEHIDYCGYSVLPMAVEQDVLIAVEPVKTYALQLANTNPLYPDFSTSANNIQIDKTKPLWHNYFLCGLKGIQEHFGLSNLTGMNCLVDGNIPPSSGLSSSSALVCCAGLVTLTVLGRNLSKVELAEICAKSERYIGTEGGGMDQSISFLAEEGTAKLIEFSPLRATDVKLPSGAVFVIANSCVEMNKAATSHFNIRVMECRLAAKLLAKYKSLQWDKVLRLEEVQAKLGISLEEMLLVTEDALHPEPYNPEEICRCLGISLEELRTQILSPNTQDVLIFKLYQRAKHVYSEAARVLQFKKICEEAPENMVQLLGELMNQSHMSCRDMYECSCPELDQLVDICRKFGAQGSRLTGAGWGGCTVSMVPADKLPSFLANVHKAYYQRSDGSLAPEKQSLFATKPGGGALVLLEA
UniProt Q9UQC2, whole entry, looked up: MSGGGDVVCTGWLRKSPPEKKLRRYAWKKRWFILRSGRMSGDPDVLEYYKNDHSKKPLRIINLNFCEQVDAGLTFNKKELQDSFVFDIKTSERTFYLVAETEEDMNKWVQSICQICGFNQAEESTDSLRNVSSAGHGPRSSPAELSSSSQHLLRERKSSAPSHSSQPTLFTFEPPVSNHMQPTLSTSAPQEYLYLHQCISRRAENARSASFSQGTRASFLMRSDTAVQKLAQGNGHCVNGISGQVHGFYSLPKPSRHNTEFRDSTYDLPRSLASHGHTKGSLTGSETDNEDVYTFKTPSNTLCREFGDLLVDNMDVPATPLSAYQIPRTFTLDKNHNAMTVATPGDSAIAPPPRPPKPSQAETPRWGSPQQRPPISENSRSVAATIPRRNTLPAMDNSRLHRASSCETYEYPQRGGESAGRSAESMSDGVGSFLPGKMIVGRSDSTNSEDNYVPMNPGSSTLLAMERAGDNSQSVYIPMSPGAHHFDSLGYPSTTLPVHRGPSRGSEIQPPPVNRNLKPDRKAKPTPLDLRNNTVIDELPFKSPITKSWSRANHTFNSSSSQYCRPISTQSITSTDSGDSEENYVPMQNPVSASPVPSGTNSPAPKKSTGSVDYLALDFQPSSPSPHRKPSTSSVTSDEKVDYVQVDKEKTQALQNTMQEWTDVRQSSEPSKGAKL

Compound: Cc1cc(ccc1-c1ccccc1)C(=O)N1CCCN(CC1)C(=O)CCl [compound 10]
Assay: probe-labelled cysteine peptide fold change vs DMSO (competition) (log2 fold change); higher = less target engagement (more negative = stronger competition)
Conditions: THP-1, incubation time: 4 h
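Note: competitive profiling in live THP-1 cells: cysteine peptides tagged with an iodoacetamide desthiobiotin (IA-DTB) probe, intensity after compound treatment relative to DMSO-treated cells.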

| Target | probe-labelled cysteine peptide fold change (10 µM) | probe-labelled cysteine peptide fold change (50 µM) |
| --- | --- | --- |
| G6PD_P11413_446_LILDVFCGSQMHFVR (UniProt P11413) | 0.0917 | 0.117 |
| FLII_Q13045_576_NYLGAECR (UniProt Q13045) | -0.0189 | 0.0603 |
| FUBP3_Q96I24_125_IQIASESSGIPERPCVLTGTPESIEQAK (UniProt Q96I24) | 0.287 | 0.314 |
| FOCAD_Q5VW36_1243_LLVENSQQTSGFALALGNIVHGLSVCGHGK (UniProt Q5VW36) | 0.219 | -0.108 |
| FZD2_Q14332_201_YATLEHPFHCPR (UniProt Q14332) | -0.0512 | 0.183 |
| G6PD_P11413_158_NIHESCMSQIGWNR (UniProt P11413) | 0.148 | -0.082 |
| FLT3_P36888_35_CVLINHK (UniProt P36888) | -0.323 | 0.0612 |
| FPGS_Q05932_315_SNAALALQLAHCWLQR (UniProt Q05932) | 0.109 | -0.365 |
| FUCA2_Q9BTY2_294_WENCMTIDK (UniProt Q9BTY2) | -0.00646 | 0.0599 |
| FTO_Q9C0B1_472_TLPADQKPECRPYWEK (UniProt Q9C0B1) | -0.435 | -0.236 |
| FUS_P35637_444_NECNQCK (UniProt P35637) | 0.241 | 0.122 |
| GALK2_Q01415_349_ICEEAPENMVQLLGELMNQSHMSCR (UniProt Q01415) | 0.442 | 0.0659 |
| GAB2_Q9UQC2_303_TPSNTLCR (UniProt Q9UQC2) | -0.249 | -0.252 |
| FSCN1_Q16658_260_VGKDELFALEQSCAQVVLQAANER (UniProt Q16658) | -0.0958 | 0.0402 |

A different layout for some results above.
Target	probe-labelled cysteine peptide fold change (10 µM)	probe-labelled cysteine peptide fold change (50 µM)
FZD2_Q14332_201_YATLEHPFHCPR (UniProt Q14332)	-0.0512	0.183
G6PD_P11413_158_NIHESCMSQIGWNR (UniProt P11413)	0.148	-0.082
FUCA2_Q9BTY2_294_WENCMTIDK (UniProt Q9BTY2)	-0.00646	0.0599
FUS_P35637_444_NECNQCK (UniProt P35637)	0.241	0.122
